Assay results reported in article doi:10.1101/2023.09.13.557610.

T1: coiled-coil domain-containing protein 47 (CCDC47), endogenous (human (endogenous in HEK293)) (UniProt Q96A33)
T1 sequence: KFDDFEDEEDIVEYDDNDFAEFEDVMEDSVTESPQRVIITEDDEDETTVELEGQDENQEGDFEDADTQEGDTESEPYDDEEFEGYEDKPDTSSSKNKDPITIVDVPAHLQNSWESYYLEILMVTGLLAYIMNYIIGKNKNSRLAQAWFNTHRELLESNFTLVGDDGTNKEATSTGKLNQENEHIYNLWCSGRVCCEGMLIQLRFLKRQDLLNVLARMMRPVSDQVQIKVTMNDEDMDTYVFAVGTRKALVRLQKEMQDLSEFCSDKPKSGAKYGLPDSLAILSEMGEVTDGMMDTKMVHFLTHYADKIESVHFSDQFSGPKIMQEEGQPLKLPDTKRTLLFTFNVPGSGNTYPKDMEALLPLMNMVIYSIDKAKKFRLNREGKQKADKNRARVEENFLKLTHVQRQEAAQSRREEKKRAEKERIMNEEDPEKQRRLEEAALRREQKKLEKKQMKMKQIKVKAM

T2: DsRed2-CCDC47_(ΔG+ΔCC)^MYC (human) (UniProt Q96A33)
T2 sequence: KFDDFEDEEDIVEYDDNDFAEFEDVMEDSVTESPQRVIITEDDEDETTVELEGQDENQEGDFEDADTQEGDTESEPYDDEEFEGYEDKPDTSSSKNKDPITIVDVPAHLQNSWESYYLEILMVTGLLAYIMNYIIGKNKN

T3: DsRed2-CCDC47TM^MYC (human) (UniProt Q96A33)
T3 sequence: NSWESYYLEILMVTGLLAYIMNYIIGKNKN

T4: DsRed2-CCDC47_(full)^MYC (human) (UniProt Q96A33)
T4 sequence: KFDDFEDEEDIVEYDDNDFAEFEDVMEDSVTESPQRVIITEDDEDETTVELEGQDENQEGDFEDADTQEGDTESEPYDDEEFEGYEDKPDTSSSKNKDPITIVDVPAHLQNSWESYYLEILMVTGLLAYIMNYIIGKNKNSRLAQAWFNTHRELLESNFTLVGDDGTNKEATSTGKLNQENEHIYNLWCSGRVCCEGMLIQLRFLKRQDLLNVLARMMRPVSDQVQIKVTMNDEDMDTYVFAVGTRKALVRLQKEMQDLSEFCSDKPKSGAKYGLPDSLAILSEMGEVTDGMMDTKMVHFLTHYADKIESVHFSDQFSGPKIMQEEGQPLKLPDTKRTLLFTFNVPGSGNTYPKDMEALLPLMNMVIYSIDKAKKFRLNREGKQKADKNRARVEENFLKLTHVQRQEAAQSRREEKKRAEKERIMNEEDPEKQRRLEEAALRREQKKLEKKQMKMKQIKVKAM

T5: DsRed2-CCDC47ΔCC^MYC (human) (UniProt Q96A33)
T5 sequence: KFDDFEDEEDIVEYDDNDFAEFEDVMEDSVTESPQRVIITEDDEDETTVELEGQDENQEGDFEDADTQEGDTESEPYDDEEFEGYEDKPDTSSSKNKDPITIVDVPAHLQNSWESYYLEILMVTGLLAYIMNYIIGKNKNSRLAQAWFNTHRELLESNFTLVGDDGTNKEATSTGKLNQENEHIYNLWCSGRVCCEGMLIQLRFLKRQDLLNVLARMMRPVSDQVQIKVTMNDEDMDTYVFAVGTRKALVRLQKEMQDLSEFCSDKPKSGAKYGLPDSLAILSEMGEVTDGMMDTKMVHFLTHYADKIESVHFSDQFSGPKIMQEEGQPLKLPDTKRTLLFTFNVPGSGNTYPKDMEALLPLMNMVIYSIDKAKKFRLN


Legend:
Test in all cases: co-IP
[1] = target: T1, coiled-coil domain-containing protein 47 (CCDC47), endogenous (human (endogenous in HEK293))
[2] = target: T2, DsRed2-CCDC47_(ΔG+ΔCC)^MYC (human)
[3] = target: T3, DsRed2-CCDC47TM^MYC (human)
[4] = target: T4, DsRed2-CCDC47_(full)^MYC (human)
[5] = target: T5, DsRed2-CCDC47ΔCC^MYC (human)
[6] = target: SPCA2C-BirA*HA (mouse)

Row | binding [6] | Molecule | binding [1] | binding [2] | binding [3] | binding [4] | binding [5]
1 |  | SPCA2C-BirA*HA (mouse) | binds |  |  |  | 
2 |  | SPCA2C^FLAG (mouse) | binds | binds | binds | binds | binds
3 | binds weakly | extended synaptotagmin-1 (ESYT1), endogenous (protein, UniProt Q9BSJ8 1-1104) MERSPGEGPSPSPMDQPSAPSDPTDQPPAAHAKPDPGSGGQPAGPGAAGEALAVLTSFGRRLLVLIPVYLAGAVGLSVGFVLFGLALYLGWRRVRDEKERSLRAARQLLDDEEQLTAKTLYMSHRELPAWVSFPDVEKAEWLNKIVAQVWPFLGQYMEKLLAETVAPAVRGSNPHLQTFTFTRVELGEKPLRIIGVKVHPGQRKEQILLDLNISYVGDVQIDVEVKKYFCKAGVKGMQLHGVLRVILEPLIGDLPFVGAVSMFFIRRPTLDINWTGMTNLLDIPGLSSLSDTMIMDSIAAFLVLPNRLLVPLVPDLQDVAQLRSPLPRGIIRIHLLAARGLSSKDKYVKGLIEGKSDPYALVRLGTQTFCSRVIDEELNPQWGETYEVMVHEVPGQEIEVEVFDKDPDKDDFLGRMKLDVGKVLQASVLDDWFPLQGGQGQVHLRLEWLSLLSDAEKLEQVLQWNWGVSSRPDPPSAAILVVYLDRAQDLPLKKGNKEPNPMVQLSIQDVTQESKAVYSTNCPVWEEAFRFFLQDPQSQELDVQVKDDSRALTLGALTLPLARLLTAPELILDQWFQLSSSGPNSRLYMKLVMRILYLDSSEICFPTVPGCPGAWDVDSENPQRGSSVDAPPRPCHTTPDSQFGTEHVLRIHVLEAQDLIAKDRFLGGLVKGKSDPYVKLKLAGRSFRSHVVREDLNPRWNEVFEVIVTSVPGQELEVEVFDKDLDKDDFLGRCKVRLTTVLNSGFLDEWLTLEDVPSGRLHLRLERLTPRPTAAELEEVLQVNSLIQTQKSAELAAALLSIYMERAEDLPLRKGTKHLSPYATLTVGDSSHKTKTISQTSAPVWDESASFLIRKPHTESLELQVRGEGTGVLGSLSLPLSELLVADQLCLDRWFTLSSGQGQVLLRAQLGILVSQHSGVEAHSHSYSHSSSSLSEEPELSGGPPHITSSAPELRQRLTHVDSPLEAPAGPLGQVKLTLWYYSEERKLVSIVHGCRSLRQNGRDPPDPYVSLLLLPDKNRGTKRRTSQKKRTLSPEFNERFEWELPLDEAQRRKLDVSVKSNSSFMSRERELLGKVQLDLAETDLSQGVARWYDLMDNKDKGSS |  |  |  |  | 

No constants are given. Whether binding was seen depends on the method and setting. In cells and extracts the contact can be indirect. Binding calls can cover weak binding; strength is not graded here. For some of these results: Tags and fused reporters may be left off the sequences shown.
